# Results as given in the supplement of paper PMC10849652.
# The chains behind the UniProt entries cited, without tags or fusion partners. Where a name states a change or a piece, a line headed by the entry shows the natural chain unless it says otherwise.
# UniProt Q92692, whole entry, looked up: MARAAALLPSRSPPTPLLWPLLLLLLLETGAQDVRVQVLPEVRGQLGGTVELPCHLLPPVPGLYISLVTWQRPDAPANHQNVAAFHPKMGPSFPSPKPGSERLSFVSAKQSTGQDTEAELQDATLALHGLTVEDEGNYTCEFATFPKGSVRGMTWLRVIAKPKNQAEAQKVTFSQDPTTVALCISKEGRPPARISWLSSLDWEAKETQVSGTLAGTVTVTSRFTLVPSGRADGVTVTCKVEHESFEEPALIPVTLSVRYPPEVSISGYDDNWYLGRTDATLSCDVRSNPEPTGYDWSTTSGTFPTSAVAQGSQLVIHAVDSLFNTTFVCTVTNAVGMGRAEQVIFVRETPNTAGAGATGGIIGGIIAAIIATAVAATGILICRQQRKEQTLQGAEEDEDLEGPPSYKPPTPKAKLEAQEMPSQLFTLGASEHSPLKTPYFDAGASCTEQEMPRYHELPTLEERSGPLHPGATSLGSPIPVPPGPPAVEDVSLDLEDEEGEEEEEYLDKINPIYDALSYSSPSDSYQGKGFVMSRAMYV
# UniProt P17568, whole entry, looked up: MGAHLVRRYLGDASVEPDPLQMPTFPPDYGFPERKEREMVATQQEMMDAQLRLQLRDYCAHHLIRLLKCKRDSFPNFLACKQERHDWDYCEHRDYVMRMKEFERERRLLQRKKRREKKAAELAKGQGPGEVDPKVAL
# UniProt O95182, whole entry, looked up: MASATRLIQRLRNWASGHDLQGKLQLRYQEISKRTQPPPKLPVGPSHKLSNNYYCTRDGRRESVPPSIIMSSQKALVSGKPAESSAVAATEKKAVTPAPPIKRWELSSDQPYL
# UniProt Q9UI09, whole entry, looked up: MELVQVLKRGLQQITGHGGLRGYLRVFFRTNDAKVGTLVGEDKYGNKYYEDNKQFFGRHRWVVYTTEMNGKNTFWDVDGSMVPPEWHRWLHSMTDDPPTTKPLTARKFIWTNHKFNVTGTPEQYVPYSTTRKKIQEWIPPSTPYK
# UniProt Q9BSU3: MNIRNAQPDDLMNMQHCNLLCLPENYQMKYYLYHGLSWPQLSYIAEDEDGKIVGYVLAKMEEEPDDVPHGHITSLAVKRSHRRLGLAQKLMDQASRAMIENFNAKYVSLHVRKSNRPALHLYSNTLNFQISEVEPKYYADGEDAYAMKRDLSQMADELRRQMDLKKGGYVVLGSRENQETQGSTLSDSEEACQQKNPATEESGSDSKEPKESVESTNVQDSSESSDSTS
# UniProt O75251, whole entry, looked up: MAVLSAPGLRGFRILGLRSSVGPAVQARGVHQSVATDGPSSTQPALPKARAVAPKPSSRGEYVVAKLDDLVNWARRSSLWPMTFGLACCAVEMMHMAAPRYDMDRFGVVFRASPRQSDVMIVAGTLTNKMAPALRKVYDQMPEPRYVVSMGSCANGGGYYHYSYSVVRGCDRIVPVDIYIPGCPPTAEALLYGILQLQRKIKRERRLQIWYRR
# UniProt Q13075: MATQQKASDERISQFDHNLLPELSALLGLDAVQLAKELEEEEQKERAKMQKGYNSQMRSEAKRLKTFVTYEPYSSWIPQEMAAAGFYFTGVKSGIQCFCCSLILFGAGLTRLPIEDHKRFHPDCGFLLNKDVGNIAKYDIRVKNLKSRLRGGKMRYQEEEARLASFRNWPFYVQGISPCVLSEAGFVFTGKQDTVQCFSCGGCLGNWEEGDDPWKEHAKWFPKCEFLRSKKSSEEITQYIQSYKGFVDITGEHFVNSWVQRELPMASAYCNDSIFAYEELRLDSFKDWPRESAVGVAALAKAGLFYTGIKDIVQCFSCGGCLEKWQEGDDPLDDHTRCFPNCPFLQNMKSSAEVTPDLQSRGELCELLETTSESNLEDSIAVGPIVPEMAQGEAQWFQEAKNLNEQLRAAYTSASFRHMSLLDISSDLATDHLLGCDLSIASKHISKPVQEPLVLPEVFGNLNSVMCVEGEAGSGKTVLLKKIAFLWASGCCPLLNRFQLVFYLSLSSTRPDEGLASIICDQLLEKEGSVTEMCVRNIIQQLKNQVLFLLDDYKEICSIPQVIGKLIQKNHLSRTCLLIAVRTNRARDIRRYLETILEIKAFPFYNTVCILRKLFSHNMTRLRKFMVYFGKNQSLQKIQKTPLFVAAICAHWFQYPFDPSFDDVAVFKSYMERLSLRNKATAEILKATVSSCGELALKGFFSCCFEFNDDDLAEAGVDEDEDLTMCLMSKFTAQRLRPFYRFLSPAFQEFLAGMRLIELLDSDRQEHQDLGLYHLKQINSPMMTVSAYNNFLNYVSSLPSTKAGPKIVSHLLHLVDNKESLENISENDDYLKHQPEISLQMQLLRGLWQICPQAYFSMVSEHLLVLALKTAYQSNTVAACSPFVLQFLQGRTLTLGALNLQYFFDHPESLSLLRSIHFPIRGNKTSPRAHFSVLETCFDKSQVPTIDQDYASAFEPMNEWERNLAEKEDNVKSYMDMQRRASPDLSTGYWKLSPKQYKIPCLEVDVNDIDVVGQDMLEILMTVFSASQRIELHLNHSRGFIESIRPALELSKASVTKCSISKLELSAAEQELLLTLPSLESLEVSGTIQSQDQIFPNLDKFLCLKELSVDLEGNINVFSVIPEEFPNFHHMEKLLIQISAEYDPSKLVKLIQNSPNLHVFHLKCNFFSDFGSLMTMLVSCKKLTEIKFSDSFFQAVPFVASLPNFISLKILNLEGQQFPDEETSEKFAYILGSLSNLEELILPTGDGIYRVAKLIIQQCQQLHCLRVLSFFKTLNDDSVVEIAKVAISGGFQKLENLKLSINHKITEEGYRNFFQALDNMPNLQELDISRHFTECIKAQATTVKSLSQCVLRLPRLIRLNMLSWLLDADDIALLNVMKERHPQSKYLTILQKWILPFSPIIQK
# UniProt Q9NV92: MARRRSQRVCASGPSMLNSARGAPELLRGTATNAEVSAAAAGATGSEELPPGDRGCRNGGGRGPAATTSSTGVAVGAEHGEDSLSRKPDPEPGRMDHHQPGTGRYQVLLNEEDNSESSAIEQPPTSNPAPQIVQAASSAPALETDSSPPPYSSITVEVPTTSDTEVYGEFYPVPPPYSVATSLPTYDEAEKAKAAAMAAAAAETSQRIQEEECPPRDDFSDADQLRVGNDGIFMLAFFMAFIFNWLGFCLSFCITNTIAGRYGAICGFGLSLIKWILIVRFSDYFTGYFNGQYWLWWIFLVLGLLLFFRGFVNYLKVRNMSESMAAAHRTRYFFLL
# UniProt O95167, whole entry, looked up: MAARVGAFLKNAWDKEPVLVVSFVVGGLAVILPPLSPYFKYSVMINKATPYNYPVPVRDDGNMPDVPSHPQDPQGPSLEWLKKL
# UniProt Q4G0T1: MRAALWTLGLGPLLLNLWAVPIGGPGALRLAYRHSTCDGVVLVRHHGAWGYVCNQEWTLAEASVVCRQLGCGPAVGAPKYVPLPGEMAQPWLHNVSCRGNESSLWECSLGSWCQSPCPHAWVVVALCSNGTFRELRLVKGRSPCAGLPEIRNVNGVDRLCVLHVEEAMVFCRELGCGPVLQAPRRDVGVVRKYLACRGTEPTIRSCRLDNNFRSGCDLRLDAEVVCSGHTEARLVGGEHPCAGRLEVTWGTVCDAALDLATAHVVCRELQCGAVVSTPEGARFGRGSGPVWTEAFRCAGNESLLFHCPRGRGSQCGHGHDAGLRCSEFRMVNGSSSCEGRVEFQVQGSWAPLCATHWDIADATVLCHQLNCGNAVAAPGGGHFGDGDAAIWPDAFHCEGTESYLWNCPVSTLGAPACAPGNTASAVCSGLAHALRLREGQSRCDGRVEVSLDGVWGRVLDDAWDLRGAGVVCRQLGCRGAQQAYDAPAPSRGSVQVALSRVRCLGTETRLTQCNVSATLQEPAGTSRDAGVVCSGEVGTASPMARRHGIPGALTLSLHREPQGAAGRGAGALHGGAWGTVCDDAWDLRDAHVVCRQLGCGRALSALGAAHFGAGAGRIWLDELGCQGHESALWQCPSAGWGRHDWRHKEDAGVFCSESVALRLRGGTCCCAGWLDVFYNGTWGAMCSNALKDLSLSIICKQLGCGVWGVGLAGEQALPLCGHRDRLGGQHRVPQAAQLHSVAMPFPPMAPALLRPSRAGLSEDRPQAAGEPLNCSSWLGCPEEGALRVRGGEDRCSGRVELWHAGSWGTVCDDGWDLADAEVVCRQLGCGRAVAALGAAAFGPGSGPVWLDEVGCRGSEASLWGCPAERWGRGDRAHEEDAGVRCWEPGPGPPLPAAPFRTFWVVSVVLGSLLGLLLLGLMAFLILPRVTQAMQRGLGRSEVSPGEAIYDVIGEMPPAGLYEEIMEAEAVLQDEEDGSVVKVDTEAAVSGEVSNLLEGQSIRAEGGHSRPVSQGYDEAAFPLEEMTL
# NBDY, A0A0U1RRE5, UniProt A0A0U1RRE5, whole entry, looked up: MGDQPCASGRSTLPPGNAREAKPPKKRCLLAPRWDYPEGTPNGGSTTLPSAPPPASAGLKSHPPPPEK
# UniProt Q02083: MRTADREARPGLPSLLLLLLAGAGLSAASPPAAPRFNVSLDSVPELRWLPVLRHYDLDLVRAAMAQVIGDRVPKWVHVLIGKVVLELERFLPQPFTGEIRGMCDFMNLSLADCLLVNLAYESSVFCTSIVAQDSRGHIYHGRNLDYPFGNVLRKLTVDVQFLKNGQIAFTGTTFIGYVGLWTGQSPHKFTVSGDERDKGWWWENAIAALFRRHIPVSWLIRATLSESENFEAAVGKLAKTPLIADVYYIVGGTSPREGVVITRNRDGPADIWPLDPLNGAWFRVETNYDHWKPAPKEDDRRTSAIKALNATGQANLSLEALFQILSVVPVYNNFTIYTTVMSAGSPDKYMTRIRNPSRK
# UniProt B2RBV5: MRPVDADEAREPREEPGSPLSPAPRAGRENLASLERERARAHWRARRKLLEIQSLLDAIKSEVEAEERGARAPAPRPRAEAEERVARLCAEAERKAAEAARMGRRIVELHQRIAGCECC
# UniProt P52849: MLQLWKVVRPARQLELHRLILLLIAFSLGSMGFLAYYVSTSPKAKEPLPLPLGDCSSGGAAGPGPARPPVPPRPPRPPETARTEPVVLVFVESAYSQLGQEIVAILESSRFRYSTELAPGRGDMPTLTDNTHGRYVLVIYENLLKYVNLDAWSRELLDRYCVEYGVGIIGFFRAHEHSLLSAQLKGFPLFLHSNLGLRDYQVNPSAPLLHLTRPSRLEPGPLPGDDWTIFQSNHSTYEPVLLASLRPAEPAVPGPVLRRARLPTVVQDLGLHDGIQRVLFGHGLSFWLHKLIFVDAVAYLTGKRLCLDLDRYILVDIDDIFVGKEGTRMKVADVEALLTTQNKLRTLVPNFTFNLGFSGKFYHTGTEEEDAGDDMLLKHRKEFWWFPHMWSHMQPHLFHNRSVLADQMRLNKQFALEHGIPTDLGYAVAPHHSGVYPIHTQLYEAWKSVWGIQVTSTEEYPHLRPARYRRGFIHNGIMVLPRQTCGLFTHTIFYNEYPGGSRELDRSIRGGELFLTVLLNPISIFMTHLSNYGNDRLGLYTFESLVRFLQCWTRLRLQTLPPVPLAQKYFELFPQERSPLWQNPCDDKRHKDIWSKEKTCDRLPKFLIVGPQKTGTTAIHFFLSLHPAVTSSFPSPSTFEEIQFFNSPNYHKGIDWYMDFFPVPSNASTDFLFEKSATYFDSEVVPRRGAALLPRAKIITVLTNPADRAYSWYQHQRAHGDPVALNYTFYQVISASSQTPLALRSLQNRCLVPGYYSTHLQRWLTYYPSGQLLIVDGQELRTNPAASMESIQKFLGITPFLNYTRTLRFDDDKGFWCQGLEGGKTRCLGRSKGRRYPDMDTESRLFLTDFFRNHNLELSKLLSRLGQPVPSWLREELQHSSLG
# UniProt Q6IBW4: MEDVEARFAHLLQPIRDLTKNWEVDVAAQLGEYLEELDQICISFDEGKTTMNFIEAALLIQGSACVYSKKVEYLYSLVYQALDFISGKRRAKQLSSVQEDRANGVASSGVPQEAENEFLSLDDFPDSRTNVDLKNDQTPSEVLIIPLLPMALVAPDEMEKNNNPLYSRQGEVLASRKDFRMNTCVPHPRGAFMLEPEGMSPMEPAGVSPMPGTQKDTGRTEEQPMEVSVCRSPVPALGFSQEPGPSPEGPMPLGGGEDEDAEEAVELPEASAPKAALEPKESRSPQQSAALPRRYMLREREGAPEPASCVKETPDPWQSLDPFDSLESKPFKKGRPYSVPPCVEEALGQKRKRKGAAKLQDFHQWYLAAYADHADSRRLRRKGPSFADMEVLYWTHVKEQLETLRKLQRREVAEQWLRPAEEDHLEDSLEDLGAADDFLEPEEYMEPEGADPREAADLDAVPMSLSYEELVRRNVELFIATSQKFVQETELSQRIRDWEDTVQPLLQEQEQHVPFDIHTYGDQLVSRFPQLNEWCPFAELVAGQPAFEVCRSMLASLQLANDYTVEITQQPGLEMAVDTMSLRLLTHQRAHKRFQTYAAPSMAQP
# UniProt O43677, whole entry, looked up: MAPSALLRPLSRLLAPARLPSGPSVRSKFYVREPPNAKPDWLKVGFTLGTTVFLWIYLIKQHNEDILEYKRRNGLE
# UniProt Q8TBE9: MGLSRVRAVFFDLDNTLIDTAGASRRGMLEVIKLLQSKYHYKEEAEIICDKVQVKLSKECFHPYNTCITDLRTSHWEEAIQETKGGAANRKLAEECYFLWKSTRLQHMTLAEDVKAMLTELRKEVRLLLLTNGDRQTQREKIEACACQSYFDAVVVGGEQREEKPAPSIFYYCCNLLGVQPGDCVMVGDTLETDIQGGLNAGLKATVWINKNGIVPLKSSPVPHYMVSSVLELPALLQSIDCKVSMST
# This is one part of the list.
# Experiments:
# Assay in all cases: log2 fold change, soluble protein after heating vs DMSO (PISA); higher = thermal stabilisation; K562 cells, 10 uM, 30 min; active = over 0.2 and 3.5 SD of the protein, either way, in both replicates (recomputed)
# [1] = compound: CS(=O)(=O)c1ccc(-c2cnc(N)c(C(=O)Nc3ccccc3)n2)cc1
# Procedure, shortened: (§1)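 K562 cells at 2×10^6 cells/mL were given 10 μM compound for 30 min. Aliquots then went through 3 min of heating across 48°C-58°C, were pooled, and were extracted in PBS with 0.5% NP-40 at 4°C, and the supernatant after 21,000xg for 90 min was quantified by TMTpro 16plex LC-MS/MS with channel sums equalised. Thermal stability relative to control samples, from duplicates, is given as log2 fold change.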
# [2] = compound: C[C@@H](Oc1cc(-c2cnn(C3CCNCC3)c2)cnc1N)c1c(Cl)ccc(F)c1Cl [crizotinib]
# Procedure, shortened: as §1
# [3] = compound: C[C@@H]1COCCN1C2=NC(=NC(=C2)C3(CC3)S(=O)(=O)C)C4=C5C=CNC5=CC=C4
# Procedure, shortened: as §1
# [4] = compound: C[C@H](C1=CC=C(C=C1)C(=O)NC2=C3C=CNC3=NC=C2)N
# Procedure, shortened: as §1
# [5] = compound: Cc1cc(Nc2cc(CN3CCOCC3)c3nc(C)c(Cc4ccc(Cl)cc4F)n3n2)n[nH]1 [gandotinib]
# Procedure, shortened: as §1
# [6] = compound: Cc1cc(SCc2sc(-c3ccc(C(F)(F)F)cc3)nc2C)ccc1OCC(=O)O
# Procedure, shortened: as §1
# [7] = compound: Cc1ccc(-n2nc(C(C)(C)C)cc2NC(=O)Nc2ccc(OCCN3CCOCC3)c3ccccc23)cc1 [doramapimod]
# Procedure, shortened: as §1
# [8] = compound: Cc1ccc(C(=O)N(CCCN)[C@@H](c2nc3cc(Cl)ccc3c(=O)n2Cc2ccccc2)C(C)C)cc1 [ispinesib]
# Procedure, shortened: as §1
# [9] = compound: C[C@H](Nc1ncnc2nc[nH]c12)c1cc2cccc(Cl)c2c(=O)n1-c1ccccc1 [duvelisib]
# Procedure, shortened: as §1
# [10] = compound: Cc1cc(Nc2cc(N3CCN(C)CC3)nc(Sc3ccc(NC(=O)C4CC4)cc3)n2)n[nH]1 [tozasertib]
# Procedure, shortened: as §1
Target,log2 fold change [1],log2 fold change [2],log2 fold change [3],log2 fold change [4],log2 fold change [5],log2 fold change [6],log2 fold change [7],log2 fold change [8],log2 fold change [9],log2 fold change [10]
NAP1L1 (UniProt P55209),inactive: 0.018,inactive: -0.025,inactive: -0.122,inactive: -0.021,inactive: -0.09,inactive: -0.016,inactive: 0.009,inactive: 0.04,–,–
NECTIN2 isoform 2 (UniProt Q92692),inactive: -0.059,inactive: 0.062,inactive: -0.2,–,inactive: -0.206,inactive: -0.149,inactive: -0.086,inactive: 0.198,–,–
NCKAP1 isoform 2 (UniProt Q9Y2A7),inactive: -0.021,inactive: -0.071,inactive: 0,inactive: -0.08,inactive: -0.093,inactive: 0.031,inactive: -0.027,inactive: 0.034,–,–
NDUFS4 (UniProt O43181),inactive: -0.035,inactive: -0.089,inactive: -0.027,inactive: 0.086,inactive: 0.164,inactive: -0.058,inactive: 0.018,inactive: -0.216,–,–
NDUFB7 (UniProt P17568),inactive: 0.004,inactive: 0.001,inactive: 0.03,inactive: -0.094,inactive: -0.02,inactive: -0.041,inactive: 0.021,inactive: 0.015,–,–
NCAPG (UniProt Q9BPX3),inactive: 0.029,inactive: -0.031,inactive: 0.034,inactive: 0.034,inactive: -0.144,inactive: 0.071,inactive: -0.077,inactive: -0.01,–,–
NASP (UniProt P49321),inactive: 0.005,inactive: 0.063,inactive: 0.045,inactive: -0.061,inactive: -0.066,inactive: 0.013,inactive: -0.053,inactive: 0.06,–,–
NCOR1 (UniProt O75376),inactive: -0.078,inactive: 0.017,inactive: 0.15,inactive: -0.064,inactive: -0.007,inactive: -0.061,inactive: -0.044,inactive: 0.004,–,–
NECTIN2 (UniProt Q92692),inactive: 0.004,inactive: 0.121,inactive: 0.082,inactive: -0.148,inactive: -0.036,inactive: -0.038,inactive: 0.015,inactive: 0.113,–,–
NARS2 (UniProt Q96I59),inactive: 0.038,inactive: -0.099,inactive: 0.125,inactive: -0.061,inactive: 0.02,inactive: -0.028,inactive: -0.009,active: -0.401,–,–
NDUFA7 (UniProt O95182),inactive: -0.004,inactive: -0.103,inactive: 0.02,inactive: 0.039,inactive: -0.12,inactive: 0.07,inactive: -0.041,inactive: -0.118,–,–
NCAPH (UniProt Q15003),inactive: 0.049,inactive: 0.013,inactive: -0.017,inactive: 0.072,inactive: -0.11,inactive: 0.081,inactive: 0.006,inactive: -0.064,–,–
NDUFA12 (UniProt Q9UI09),inactive: 0.107,inactive: -0.033,inactive: 0.025,inactive: 0.015,inactive: -0.206,inactive: 0.115,inactive: 0.03,active: -0.385,–,–
NAA11 (UniProt Q9BSU3),inactive: 0.027,inactive: -0.065,inactive: 0.006,inactive: 0.086,–,inactive: 0.114,inactive: -0.037,inactive: -0.009,–,–
NDUFS7 (UniProt O75251),inactive: 0.013,inactive: -0.109,inactive: 0.029,inactive: -0.019,inactive: -0.108,inactive: 0.013,inactive: -0.02,inactive: -0.114,–,–
NAIP (UniProt Q13075),–,inactive: 0.075,–,–,–,–,inactive: -0.067,inactive: -0.895,–,–
MYSM1 (UniProt Q5VVJ2),inactive: 0.067,inactive: -0.091,–,–,–,–,inactive: -0.045,inactive: 0.128,–,–
NEB isoform 3 (UniProt P20929),–,–,inactive: -0.483,inactive: 0.005,inactive: -0.04,inactive: -0.103,–,inactive: 0.158,inactive: -0.033,–
NDFIP2 (UniProt Q9NV92),inactive: 0.171,–,–,–,–,–,–,inactive: 0.184,–,inactive: 0.091
NDUFA3 (UniProt O95167),inactive: 0.019,–,inactive: 0.078,inactive: 0.088,inactive: 0.04,inactive: -0.127,–,inactive: -0.076,inactive: 0.153,inactive: -0.059
NDRG2 (UniProt G3V392),inactive: -0.043,inactive: 0.029,inactive: 0.198,–,–,–,inactive: 0.152,–,–,–
NAP1L1 (UniProt B7Z9C2),–,inactive: -0.015,–,–,inactive: 0.041,inactive: 0.433,inactive: 0.155,–,–,–
NCOA5 (UniProt Q9HCD5),inactive: -0.005,inactive: -0.131,–,–,inactive: 0.05,inactive: 0.052,inactive: 0.168,inactive: 0.02,–,–
NBEAL2 (UniProt Q6ZNJ1),–,inactive: 0.002,–,inactive: 0.142,inactive: 0.09,–,inactive: 0.088,inactive: -0.304,–,–
NCOA1 (UniProt Q15788),–,–,inactive: 0.056,inactive: -0.064,–,–,–,inactive: -0.037,inactive: -0.072,inactive: -0.025

Target,log2 fold change [1],log2 fold change [2],log2 fold change [3],log2 fold change [4],log2 fold change [5],log2 fold change [6],log2 fold change [7],log2 fold change [8],log2 fold change [9],log2 fold change [10]
NA isoform 3 (UniProt Q4G0T1),inactive: 0.023,inactive: -0.004,–,inactive: -0.157,–,inactive: -0.001,inactive: 0.077,inactive: -0.099,–,–
NDEL1 isoform 2 (UniProt Q9GZM8),–,–,inactive: -0.031,inactive: 0.017,inactive: -0.017,inactive: 0.156,–,inactive: -0.076,inactive: 0.087,inactive: -0.045
NCCRP1 (UniProt Q6ZVX7),–,inactive: 0.115,inactive: 0.265,–,–,inactive: -0.266,inactive: -0.173,–,inactive: -0.173,–
"NBDY, A0A0U1RRE5",–,–,inactive: 0.299,inactive: -0.086,inactive: -0.025,inactive: 0.001,–,inactive: 0.035,inactive: 0.147,inactive: -0.101
NDUFV1 (UniProt E9PJL9),inactive: -0.095,inactive: 0.076,–,–,–,–,inactive: -0.042,–,–,inactive: -0.009
NAAA (UniProt Q02083),inactive: 0.04,inactive: -0.189,–,inactive: -0.176,inactive: 0.127,–,inactive: 0.014,inactive: 0.191,–,–
NA (UniProt B2RBV5),inactive: -0.027,–,inactive: 0.064,–,inactive: 0,–,–,–,–,–
NCOA4 isoform 4 (UniProt Q13772),–,–,–,inactive: 0.473,inactive: 0.246,–,–,inactive: -0.142,–,–
NA (UniProt J3KR12),–,inactive: 0.251,inactive: 0.061,–,–,–,inactive: -0.017,inactive: 0.006,–,–
NDST2 (UniProt P52849),inactive: 0.181,inactive: -0.143,inactive: 0,–,–,–,inactive: 0.083,inactive: 0.011,–,inactive: -0.042
NCAPH2 isoform 4 (UniProt Q6IBW4),–,inactive: -0.081,inactive: -0.135,–,–,–,inactive: -0.147,–,–,–
NAP1L4 (UniProt C9J6D1),inactive: 0.078,inactive: 0.033,–,–,–,inactive: -0.029,inactive: -0.036,–,inactive: 0.014,–
NEK1 isoform 3 (UniProt Q96PY6),–,inactive: -0.191,–,inactive: 0.142,–,inactive: -0.144,inactive: -0.064,inactive: 0.016,inactive: -0.073,–
NCKAP5L (UniProt Q9HCH0),–,inactive: 0.005,–,–,–,inactive: 0.094,inactive: 0.011,inactive: 0.02,inactive: -0.092,–
NABP2 (UniProt Q9BQ15),–,–,–,–,–,inactive: 0.064,–,–,inactive: 0.071,–
NCBP2AS2 (UniProt Q69YL0),inactive: -0.092,–,–,inactive: -0.027,inactive: -0.064,inactive: 0.044,–,active: -0.48,–,–
MYOF (UniProt Q9NZM1),–,–,–,–,–,inactive: 0.165,–,–,inactive: -0.031,–
NDUFC1 (UniProt O43677),–,–,inactive: 0.301,inactive: -0.046,–,–,–,–,–,–
NAA40 (UniProt Q86UY6),–,inactive: 0.075,inactive: -0.234,inactive: 0.606,inactive: 0.092,–,inactive: 0.156,inactive: -0.167,–,inactive: 0.218
NCKIPSD (UniProt Q9NZQ3),–,–,–,–,inactive: -0.06,–,–,inactive: -0.111,–,–
"NA, A0A2R8Y3M9",inactive: -0.084,inactive: 0.013,–,inactive: -0.011,inactive: -0.099,inactive: -0.107,inactive: -0.008,inactive: -0.125,–,–
NANP (UniProt Q8TBE9),inactive: 0.033,–,inactive: 0.043,inactive: 0.033,inactive: 0.019,inactive: 0.09,–,–,inactive: 0.077,inactive: 0.073
"NA, A0A494C071",–,active: -0.887,inactive: 0.137,inactive: 0.043,inactive: -0.352,inactive: -0.102,inactive: 0.104,–,–,–
"NA, A0A1W2PSA9",–,–,–,inactive: 0.041,inactive: 0.403,inactive: -0.371,–,inactive: -0.059,–,–

# Single records, as listed above. Values in the order: log2 fold change [1] | log2 fold change [2] | log2 fold change [3] | log2 fold change [4] | log2 fold change [5] | log2 fold change [6] | log2 fold change [7] | log2 fold change [8] | log2 fold change [9] | log2 fold change [10]
# NDST2 (UniProt P52849) is listed with inactive: 0.181 | inactive: -0.143 | inactive: 0 | – | – | – | inactive: 0.083 | inactive: 0.011 | – | inactive: -0.042
# NA (UniProt J3KR12) is listed with – | inactive: 0.251 | inactive: 0.061 | – | – | – | inactive: -0.017 | inactive: 0.006 | – | –
# NABP2 (UniProt Q9BQ15) is listed with – | – | – | – | – | inactive: 0.064 | – | – | inactive: 0.071 | –
